Laboratory results as given in the supplement of paper PMC4604168 (melanoma cell lines).
Some of the results follow. Single values are uncertain, as repeats are few or missing.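 The apoptosis fraction was the count of cleaved-PARP antibody-stained nuclei relative to all DNA-stained nuclei, imaged in 1,536-well plates. Screening doses were set so most cells survived, and baseline and induced cleaved-PARP levels vary greatly across cell lines.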

Assays:
Test in all cases: cleaved PARP positive nuclei fraction relative to DMSO control; melanoma cells; higher = more apoptosis
Conditions in all cases: library dose: low library concentration; 72 h
[1] = test system: 501Mel
[2] = test system: A101D
[3] = test system: A2058
[4] = test system: A375
[5] = test system: C32
[6] = test system: CBRC008 (line from a melanoma biopsy)
[7] = test system: CBRC014 (line from a melanoma biopsy)
[8] = test system: CBRC016 (line from a melanoma biopsy)
[9] = test system: CBRC017 (line from a melanoma biopsy)
[10] = test system: CBRC013 (line from a melanoma biopsy)

| Structure (SMILES) | cleaved PARP positive nuclei fraction [1] | cleaved PARP positive nuclei fraction [2] | cleaved PARP positive nuclei fraction [3] | cleaved PARP positive nuclei fraction [4] | cleaved PARP positive nuclei fraction [5] | cleaved PARP positive nuclei fraction [6] | cleaved PARP positive nuclei fraction [7] | cleaved PARP positive nuclei fraction [8] | cleaved PARP positive nuclei fraction [9] | cleaved PARP positive nuclei fraction [10] |
| --- | --- | --- | --- | --- | --- | --- | --- | --- | --- | --- |
| CCCS(=O)(=O)Nc1ccc(F)c(C(=O)c2c[nH]c3ncc(Cl)cc23)c1F + C[As](C)SC[C@H](NC(=O)CC[C@H](N)C(=O)O)C(=O)NCC(=O)O [Darinaparsin] (first compound 0.08 µM, partner dose 0.4 µM) | 74.4% | 46.1% | 127% | 131% | 214% | 123% | 188% | 130% | 93.1% |  |
| Cn1cnc2c(F)c(Nc3ccc(Br)cc3Cl)c(C(=O)NOCCO)cc21 [selumetinib] + C[C@]12O[C@H](C[C@]1(O)CO)n1c3ccccc3c3c4c(c5c6ccccc6n2c5c31)CNC4=O [Lestaurtinib] (first compound 0.015 µM, partner dose 0.004 µM) | 185% | 119% | 107% | 134% | 96.5% | 150% | 94% | 70% | 177% |  |
| Cc1cc(Nc2cc(N3CCN(C)CC3)nc(Sc3ccc(NC(=O)C4CC4)cc3)n2)n[nH]1 [Tozasertib] + Cn1cc(C2=C(c3cn(C4CCN(Cc5ccccn5)CC4)c4ccccc34)C(=O)NC2=O)c2ccccc21 [Enzastaurin] (first compound 0.006 µM, partner dose 0.8 µM) | 249% | 87.1% | 130% | 116% | 62.4% | 76.1% | 99.2% | 158% | 90.2% |  |
| C/C(O)=C(\C#N)C(=O)Nc1cc(Br)ccc1Br + CCCCCCCCCCCC1=C(O)C(=O)C=C(O)C1=O [Embelin] (first compound 2 µM, partner dose 1.2 µM) | 61.4% | 54% | 61.3% | 134% | 143% |  | 124% | 33.7% | 68.5% | 129% |
| C[As](C)SC[C@H](NC(=O)CC[C@H](N)C(=O)O)C(=O)NCC(=O)O [Darinaparsin] + COc1ccc2c(c1)CCC1C2CCC2(C)C(NCCCCCCN3C(=O)C=CC3=O)CCC12 [U73122] (first compound 0.4 µM, partner dose 0.4 µM) | 55.9% | 110% | 37.2% | 56.7% | 168% |  | 180% | 67.9% | 70.7% | 209% |
| O=S(=O)(c1ccccc1)N(CC(F)(F)F)c1ccc(C(O)(C(F)(F)F)C(F)(F)F)cc1 + C/C(O)=C(\C#N)C(=O)Nc1cc(Br)ccc1Br [LFM-A13] (first compound 1.4 µM, partner dose 2 µM) | 70.4% | 186% | 122% | 207% | 155% |  | 100% | 90.9% | 44.4% | 99.1% |
| C[C@@H]1CCN(C(=O)CC#N)C[C@@H]1N(C)c1ncnc2[nH]ccc12 + Cc1cc(SCc2sc(-c3ccc(C(F)(F)F)c(F)c3)nc2C)ccc1OCC(=O)O [GW0742] (first compound 1 µM, partner dose 2 µM) | 174% | 121% | 86% | 28.8% | 128% |  | 88.8% | 103% | 201% | 40.4% |
| OCCn1cc(-c2cnc3nnn(Cc4ccc5ncccc5c4)c3n2)cn1 + Cc1cc(SCc2sc(-c3ccc(C(F)(F)F)c(F)c3)nc2C)ccc1OCC(=O)O [GW0742] (first compound 1 µM, partner dose 2 µM) | 73.8% | 103% | 143% | 230% | 53.2% |  | 125% | 41.9% | 167% | 87% |
| Cc1ccc(NC(=O)c2cccc(N(C)C)c2)cc1NC(=O)c1ccc(O)cc1 + C/C(O)=C(\C#N)C(=O)Nc1cc(Br)ccc1Br [LFM-A13] (first compound 2 µM, partner dose 2 µM) | 92.3% | 207% | 54.3% | 65.6% | 115% |  | 101% | 83.1% | 112% | 182% |
| CC(C)(C)c1cnc(CSc2cnc(NC(=O)C3CCNCC3)s2)o1 + C/C(O)=C(\C#N)C(=O)Nc1cc(Br)ccc1Br [LFM-A13] (first compound 0.01 µM, partner dose 2 µM) | 93.5% | 109% | 51.4% | 89.7% | 114% |  | 104% | 67.1% | 62.5% | 128% |
| N#Cc1c(O)c2c(-c3ccc(-c4ccccc4O)cc3)csc2[nH]c1=O + O=C(Oc1ccc([N+](=O)[O-])cc1)N1CCC(C(O)(c2ccc3c(c2)OCO3)c2ccc3c(c2)OCO3)CC1 [JZL184] (first compound 2 µM, partner dose 1 µM) | 81.6% | 53.5% | 81.7% | 85.4% | 84.6% |  | 190% | 40.9% | 77.9% | 65.7% |
| COc1ccc(-c2ccc3c(N4CCOCC4)nc(N4C[C@@H](C)O[C@@H](C)C4)nc3n2)cc1CO + Cc1cc(SCc2sc(-c3ccc(C(F)(F)F)c(F)c3)nc2C)ccc1OCC(=O)O [GW0742] (first compound 0.02 µM, partner dose 2 µM) | 152% | 135% | 124% | 184% | 44.7% |  | 120% | 52.7% | 107% | 48.5% |
